From paper doi:10.1101/2023.05.11.540316
These are yes or no findings as the source states them, for the method shown. For some of these results: Binding seen in cells or lysates may run through a third protein. Some binding calls cover weakened binding; strength is not graded here. For some of these results: Tags and fused reporters may be left off the sequences shown.

The chains behind the UniProt entries cited, without tags or fusion partners.
UniProt P61765: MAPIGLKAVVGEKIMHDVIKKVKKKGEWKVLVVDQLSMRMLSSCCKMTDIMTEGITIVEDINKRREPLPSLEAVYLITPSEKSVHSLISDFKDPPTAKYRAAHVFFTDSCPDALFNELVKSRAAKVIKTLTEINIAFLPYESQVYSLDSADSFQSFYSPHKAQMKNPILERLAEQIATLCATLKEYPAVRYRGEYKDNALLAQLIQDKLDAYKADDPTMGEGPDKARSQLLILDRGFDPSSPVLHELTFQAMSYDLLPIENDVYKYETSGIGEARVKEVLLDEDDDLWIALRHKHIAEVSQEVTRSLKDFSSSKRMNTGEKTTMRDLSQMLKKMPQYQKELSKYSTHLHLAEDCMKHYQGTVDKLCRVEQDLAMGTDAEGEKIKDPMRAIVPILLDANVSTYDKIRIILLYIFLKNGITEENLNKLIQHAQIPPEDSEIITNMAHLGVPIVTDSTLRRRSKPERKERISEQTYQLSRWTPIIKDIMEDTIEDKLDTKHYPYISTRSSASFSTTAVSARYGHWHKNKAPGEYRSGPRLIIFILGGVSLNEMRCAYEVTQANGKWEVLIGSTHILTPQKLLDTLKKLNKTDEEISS

Legend:
STXBP1-emGFP = STXBP1-emGFP (UniProt P61765); assay: co-IP
[1] = target: GFP-tagged STXBP1^WT (ALPHAScreen) (UniProt P61765); assay: AlphaScreen or HTRF

| Binder | binding (STXBP1-emGFP) | binding [1] |
| --- | --- | --- |
| DDHD2, endogenous in PC12 cells (enzyme, UniProt D3ZJ91 1-699) MSSGESYQEQLSQSDPSPSPNSSSSFELLDMDVGSSYEPVSPHWFYCKVIDSKELWIPFNSEDSQQLEEAHGSGKDCNERVVPTDGGRYDVHLGERMRYAVYWDELPSEVRRCTWFYKGDKDNKYVPYSESFSQVLEDTYMLAVTLDEWKKKLESPNREIIVLHNPKLMVHYQPITGSDEWGSTSTEQGRPRSVKRGVESIPVDIHCGEPLQIDHLVFVVHGIGPACDLRFRSIVQCVNDFRSVSLNLLQTHFKKAQENQQIGRVEFLPVNWHSPLHSTGVDIDLQRITLPSINRLRHFTNDTILDVFFYNSPTYCQTIVDTVASEMNRIYTLFLQRNPDFKGGVSIAGHSLGSLILFDILTNQKDSIGDIDSEKGSLSTAEDLGDVSTLEEELKKLQLSEFVTVFEKEKVDREALALCTDRDLQEMGIPLGPRKKILNHFSATKSSVGINRPTMSASEVNIPKEKGDYLDVGIGQVSVKYPRLNYKPEIFFAFGSPIGMFLTVRGLRRIDPNYKFPTCKGFFNIYHPFDPVAYRIEPMVVPGVEFEPMLIPHHKGRKRMHLELREGLTRMSMDLKNNLLGSLRMAWKSFTRAPYPALQASEMAEDTEAESEPSSEKPSDANTEEPPVEVKEEAPINVGMLNGGQRIDYVLQEKPIESFNEYLFALQSHLCYWESEDTVLLVLKEIYQTQGIFLDQPLQ | binds | – |
| myc-tagged DDHD2 (ALPHAScreen) (enzyme, UniProt O94830 1-711) MSSVQSQQEQLSQSDPSPSPNSCSSFELIDMDAGSLYEPVSPHWFYCKIIDSKETWIPFNSEDSQQLEEAYSSGKGCNGRVVPTDGGRYDVHLGERMRYAVYWDELASEVRRCTWFYKGDKDNKYVPYSESFSQVLEETYMLAVTLDEWKKKLESPNREIIILHNPKLMVHYQPVAGSDDWGSTPTEQGRPRTVKRGVENISVDIHCGEPLQIDHLVFVVHGIGPACDLRFRSIVQCVNDFRSVSLNLLQTHFKKAQENQQIGRVEFLPVNWHSPLHSTGVDVDLQRITLPSINRLRHFTNDTILDVFFYNSPTYCQTIVDTVASEMNRIYTLFLQRNPDFKGGVSIAGHSLGSLILFDILTNQKDSLGDIDSEKDSLNIVMDQGDTPTLEEDLKKLQLSEFFDIFEKEKVDKEALALCTDRDLQEIGIPLGPRKKILNYFSTRKNSMGIKRPAPQPASGANIPKESEFCSSSNTRNGDYLDVGIGQVSVKYPRLIYKPEIFFAFGSPIGMFLTVRGLKRIDPNYRFPTCKGFFNIYHPFDPVAYRIEPMVVPGVEFEPMLIPHHKGRKRMHLELREGLTRMSMDLKNNLLGSLRMAWKSFTRAPYPALQASETPEETEAEPESTSEKPSDVNTEETSVAVKEEVLPINVGMLNGGQRIDYVLQEKPIESFNEYLFALQSHLCYWESEDTVLLVLKEIYQTQGIFLDQPLQ | – | binds |
| myc-tagged PAPLA1 (ALPHAScreen) (enzyme, UniProt Q8NEL9 1-900) MNYPGRGSPRSPEHNGRGGGGGAWELGSDARPAFGGGVCCFEHLPGGDPDDGDVPLALLRGEPGLHLAPGTDDHNHHLALDPCLSDENYDFSSAESGSSLRYYSEGESGGGGSSLSLHPPQQPPLVPTNSGGGGATGGSPGERKRTRLGGPAARHRYEVVTELGPEEVRWFYKEDKKTWKPFIGYDSLRIELAFRTLLQTTGARPQGGDRDGDHVCSPTGPASSSGEDDDEDRACGFCQSTTGHEPEMVELVNIEPVCVRGGLYEVDVTQGECYPVYWNQADKIPVMRGQWFIDGTWQPLEEEESNLIEQEHLNCFRGQQMQENFDIEVSKSIDGKDAVHSFKLSRNHVDWHSVDEVYLYSDATTSKIARTVTQKLGFSKASSSGTRLHRGYVEEATLEDKPSQTTHIVFVVHGIGQKMDQGRIIKNTAMMREAARKIEERHFSNHATHVEFLPVEWRSKLTLDGDTVDSITPDKVRGLRDMLNSSAMDIMYYTSPLYRDELVKGLQQELNRLYSLFCSRNPDFEEKGGKVSIVSHSLGCVITYDIMTGWNPVRLYEQLLQKEEELPDERWMSYEERHLLDELYITKRRLKEIEERLHGLKASSMTQTPALKFKVENFFCMGSPLAVFLALRGIRPGNTGSQDHILPREICNRLLNIFHPTDPVAYRLEPLILKHYSNISPVQIHWYNTSNPLPYEHMKPSFLNPAKEPTSVSENEGISTIPSPVTSPVLSRRHYGESITNIGKASILGAASIGKGLGGMLFSRFGRSSTTQSSETSKDSMEDEKKPVASPSATTVGTQTLPHSSSGFLDSAYFRLQESFFNLPQLLFPENVMQNKDNALVELDHRIDFELREGLVESRYWSAVTSHTAYWSSLDVALFLLTFMYKHEHDDDAKPNLDPI | – | binds |
| myc-tagged PNPLA1 (ALPHAScreen) (enzyme, UniProt Q8N8W4 1-532) MEEQVFKGDPDTPHSISFSGSGFLSFYQAGAVDALRDLAPRMLETAHRFAGTSAGAVIAALAICGIEMDEYLRVLNVGVAEVKKSFLGPLSPSCKMVQMMRQFLYRVLPEDSYKVTTGKLHVSLTRLTDGENVVVSEFTSKEELIEALYCSCFVPVYCGLIPPTYRGVRYIDGGFTGMQPCAFWTDAITISTFSGQQDICPRDCPAIFHDFRMFNCSFQFSLENIARMTHALFPPDLVILHDYYYRGYEDAVLYLRRLNAVYLNSSSKRVIFPRVEVYCQIELALGNECPERSQPSLRARQASLEGATQPHKEWVPKGDGRGSHGPPVSQPVQTLEFTCESPVSAPVSPLEQPPAQPLASSTPLSLSGMPPVSFPAVHKPPSSTPGSSLPTPPPGLSPLSPQQQVQPSGSPARSLHSQAPTSPRPSLGPSTVGAPQTLPRSSLSAFPAQPPVEELGQEQPQAVALLVSSKPKSAVPLVHVKETVSKPYVTESPAEDSNWVNKVFKKNKQKTSGTRKGFPRHSGSKKPSSKVQ | – | binds |
